PubChem BioAssay AID1508588 | Peter MacCallum Cancer Centre, 2020
This is a random part of about 18,000 reagents. 790 of all reagents (4.4%) were called active. 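Calls rest on a combination of fold-change classes in drug and vehicle arms, not all shown here.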 No sequences are given here.

Assay: 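Which gene losses make BRAF-mutant melanoma cells more responsive to vemurafenib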 (primary screen)
Cell system: human WM266.4 melanoma cells (BRAF V600 mutant)
Reagent: siRNA pool against human genes, 40 nM
Duration: 96 h from transfection to read-out
Conditions: vemurafenib 300 nM (about IC25), added 48 h after transfection, for 48 h; comparison arm got DMSO vehicle only
Read-out: 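Cell gain (DAPI nuclei at end minus before drug, mean of two replicates) and medium lactate by absorbance per cell, both as ratio to non-targeting siRNA, also grouped into fold-change classes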
Reading the numbers: cell gain with vemurafenib: higher = more cell gain than with non-targeting siRNA; lactate per cell with vemurafenib: higher = more lactate made per cell
Hit rule: 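Enhancement is called by pairing each knock-down's vehicle-arm and drug-arm fold-change classes for viability or glycolysis; which class combinations qualify is not given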
Meaning of the calls: active = enhances vemurafenib effect; inactive = no enhancement seen

Silencing of OR2A5 came out at: cell gain with vemurafenib 0.97; lactate per cell with vemurafenib 0.32; inactive.
Against CCNP, the entry reads cell gain with vemurafenib 0.88; lactate per cell with vemurafenib 0.82; inactive.
Knock-down of TYR gave: cell gain with vemurafenib 0.52; lactate per cell with vemurafenib 1.27; inactive.
Silencing of MEX3D resulted in: cell gain with vemurafenib 1.2; lactate per cell with vemurafenib 0.94; inactive.
Against PRSS54 the deposit lists cell gain with vemurafenib 0.67; lactate per cell with vemurafenib 0.84; inactive.
Silencing of KCNJ14 gave: cell gain with vemurafenib 0.66; lactate per cell with vemurafenib 2.37; inactive.
Depletion of NDUFB2 resulted in: cell gain with vemurafenib 0.77; lactate per cell with vemurafenib 1.5; inactive.
TAS1R1 gave cell gain with vemurafenib 0.87; lactate per cell with vemurafenib 0.88; inactive.
HSPA1L scored cell gain with vemurafenib 0.11; lactate per cell with vemurafenib 1.31; inactive.
PUS7L gave cell gain with vemurafenib 0.72; lactate per cell with vemurafenib 0.68; inactive.
For STRN3 the deposit lists cell gain with vemurafenib 0.36; lactate per cell with vemurafenib 1.18; inactive.
ATP5F1E showed cell gain with vemurafenib 0.51; lactate per cell with vemurafenib 1.15; inactive.
After knock-down of RANBP6 the results were cell gain with vemurafenib 0.55; lactate per cell with vemurafenib 0.6; inactive.
IFI35 gave cell gain with vemurafenib 0.87; lactate per cell with vemurafenib 1.68; inactive.
After knock-down of TCP1, the screen gave cell gain with vemurafenib 0.78; lactate per cell with vemurafenib 1.29; inactive.
With knock-down of C1QTNF3, the record shows cell gain with vemurafenib 1.49; lactate per cell with vemurafenib 0.65; inactive.
Knock-down of ZFYVE16 came out at: cell gain with vemurafenib 0.04; lactate per cell with vemurafenib 1.6; inactive.
Silencing of MYOM1 resulted in: cell gain with vemurafenib 0.57; lactate per cell with vemurafenib 1.48; inactive.
Knock-down of SLC25A23 gave: cell gain with vemurafenib 0.75; lactate per cell with vemurafenib 1.54; inactive.
For CLIC2, the values are cell gain with vemurafenib 0.7; lactate per cell with vemurafenib 0.82; inactive.
COX6C showed cell gain with vemurafenib 0.67; lactate per cell with vemurafenib 1.53; inactive.
For SRPK1 the deposit lists cell gain with vemurafenib 0.67; lactate per cell with vemurafenib 1.1; inactive.
For MAPK9, the values are cell gain with vemurafenib 0.88; lactate per cell with vemurafenib 0.57; inactive.
With knock-down of GABRB3 the results were cell gain with vemurafenib 0.43; lactate per cell with vemurafenib 0.83; inactive.
With knock-down of UAP1, the screen gave cell gain with vemurafenib 0.55; lactate per cell with vemurafenib 0.38; inactive.
PLA2G2F scored cell gain with vemurafenib 0.04; lactate per cell with vemurafenib 0.67; inactive.
After knock-down of DNAAF3 the results were cell gain with vemurafenib 0.91; lactate per cell with vemurafenib 0.68; inactive.
After knock-down of LRP5L the results were cell gain with vemurafenib 0.31; lactate per cell with vemurafenib 0.76; inactive.
After knock-down of TSPAN5, the screen gave cell gain with vemurafenib 0.21; lactate per cell with vemurafenib 1.1; inactive.
After knock-down of FIG4, the record shows cell gain with vemurafenib 0.65; lactate per cell with vemurafenib 0.62; inactive.
ARNT showed cell gain with vemurafenib 0.56; lactate per cell with vemurafenib 0.84; inactive.
Against XPC, the values are cell gain with vemurafenib 0.62; lactate per cell with vemurafenib 1.14; inactive.
MCM4 scored cell gain with vemurafenib 0.71; lactate per cell with vemurafenib 0.82; inactive.
Knock-down of ZMYND10 came out at: cell gain with vemurafenib 1; lactate per cell with vemurafenib 0.6; inactive.
Against CORO2A, the entry reads cell gain with vemurafenib 0.11; lactate per cell with vemurafenib 1.78; inactive.
ZNF684 showed cell gain with vemurafenib 0.04; lactate per cell with vemurafenib 1.08; inactive.
For OTP the deposit lists cell gain with vemurafenib 0.95; lactate per cell with vemurafenib 0.73; inactive.
LIPF showed cell gain with vemurafenib 1.22; lactate per cell with vemurafenib 0.54; inactive.
Knock-down of NNT resulted in: cell gain with vemurafenib 0.4; lactate per cell with vemurafenib 0.5; inactive.
With knock-down of BEX5, the screen gave cell gain with vemurafenib 0.69; lactate per cell with vemurafenib 0.87; inactive.
